Reference: PubChem BioAssay AID1508600 (Functional Genomics Laboratory (NCATS/FGL), 2020)
Screen size: about 53,000 sequences; about 3,700 (7%) were called active.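 Rule for the calls: active = gene knockdowns whose robust z-score for IL-1 alpha signal is at least 2 or at most -2, so actives lie on both sides; inactive = the rest.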 The list shows a part of the results.

Assay: Components of the Cytosolic LPS Sensing Pathway: Gene Identification via Genome-wide siRNA Screen;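 note: robust z of the log signal after scaling to non-targeting control siRNA wells of the plate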
Conditions: RAW264.7 macrophages, IL-1a HTRF, actives lie on both sides, screened at 100 nM (by protocol), cells primed 5 h with Pam3CSK4 first
In short: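 Three distinct siRNAs per gene were tested singly at 100 nM in RAW264.7 macrophages. Following Pam3CSK4 priming and 24 hour LipidA transfection, IL-1a secretion was read by HTRF.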

| Sequence | z-score |
| --- | --- |
| GGAAUUUUCUACAUGUGUGTT against Lim2 | active: -2.12 |
| GGAAAGAAACUUAAAGUGGTT against Tfdp1 | active: 2.64 |
| GGACUUUGGACUUUCUAUUTT against Mettl16 | inactive: -1.07 |
| GGAUCACAACAAAAUAUCCTT against Gm6288 | inactive: 1.49 |
| GAAACUCUGUGAAUAUAACTT against Zfp97 | inactive: 0.633 |
| GCCAACAAAGUGAUCGAAGTT against Fkbp10 | inactive: 0.175 |
| GGACAUCCAUCAUUACUUUTT against Slc26a2 | inactive: -0.136 |
| CGGGAUUCUAAAAAAAGUGTT against Hibadh | inactive: 0.296 |
| GCAAAGUGGUUAUUUGAAATT against Xirp2 | inactive: 0.00987 |
| GCCUGUUACAGGAAUCAGGTT against Mex3a | inactive: 1.76 |
| CGGACGGCAGAAGAAAAAGTT against Zfp652 | inactive: 0.674 |
| GGGAUGGCCUUUGGUUAAATT against Vmn1r203 | inactive: -0.133 |
| GGGUCUGUCAAGAUUGACATT against Fsip1 | inactive: -1.36 |
| GGCCCAAGAGAAUAUCCAGTT against Gm6460 | inactive: 0.281 |
| GGGAUUUUGUGAUGUCCGCTT against Mmp23 | inactive: 0.422 |
| GCUAAGACAGAACUCUUCUTT against Nap1l5 | active: 3.14 |
| GGUGGAGUUAGAAAACUACTT against BC048679 | inactive: -0.341 |
| CCCUUAAUGAGACAAGGCATT against A630023P12Rik | inactive: 0.0231 |
| GGAAGAUGAGGAGAAAGACTT against Rin3 | inactive: -1.07 |
| GGAGGCAUGCCCUAUGAAUTT against Zfp11 | inactive: 1.4 |
| GGAGCUGUGCGGUCUGUUATT against Mul1 | inactive: -0.626 |
| GGGCAGCUGGUCAAAAGUCTT against Nars2 | inactive: -0.0638 |

| Sequence | z-score |
| --- | --- |
| GGAAAACCACAAAACAUGATT against Muc20 | inactive: -0.33 |
| CCCGUCUCUUAAUCUGUUGTT against Ptprr | inactive: -0.774 |
| GGAAGCCGAGAAUACAGCATT against Wdr44 | inactive: -0.806 |
| GCAGCUCCUUUAUACCCACTT against Mxra7 | inactive: -1.25 |
| CCAGAAACUCGCAUAUCACTT against Tmem184b | inactive: -0.294 |
| GGAUGACACCAAGAAAUAUTT against Rtl5 | inactive: 0.0144 |
| GGACAUUGCCCACAUGACCTT against Rnf227 | inactive: -0.15 |
| GCUAGAGACUGUUUGCACGTT against E2f8 | inactive: 0.256 |
| CCCAACAUAUUUUUUAGCATT against Hmgcll1 | inactive: -0.506 |
| CCACUGUUACCAUUAUAAUTT against Pramel4 | inactive: -0.594 |
| GGCAUGAGGUUCAAGAUUUTT against Hsd17b6 | inactive: -0.0961 |
| CGCGAACUCUCCCUUACUUTT against Mgat4e | inactive: -0.522 |
| GGCUUUUUCCUAAACUUGGTT against Nt5c | inactive: 1.19 |
| GGCCUAUUUUUUCAUAGUUTT against Ptprs | inactive: 0.0729 |
| GGUGCUGCUAUUCCUGCACTT against Gpam | active: -2.03 |
| GGUUCAGCAGUUGUCUGAGTT against Ccdc172 | inactive: 0.159 |
| GGUAGAAUACGUGUUCCUGTT against Cacna1f | active: 2.79 |
| GGAUAACGAUCCUUUUGACTT against Prss21 | inactive: -0.547 |
| GCUAUAAGGAAAGAGUAGCTT against Taar9 | inactive: 0.285 |
| GGUCUUUAGGUGCUAAAGATT against Pheta2 | inactive: 1.21 |
| GCAAAGUGAAUAAGUUCUGTT against Fryl | inactive: -0.896 |
| GCUCACAUGUUUUAGGUGATT against Poc5 | inactive: 0.756 |

| Sequence | z-score |
| --- | --- |
| GGAAAAUCUACAUUCCCUUTT against Ncstn | inactive: 1.07 |
| GGAGAAGAAAAAGCGGUACTT against Plxnb2 | active: 2.71 |
| GGCACCAUACUGGACAUACTT against Chpt1 | inactive: -0.115 |
| GCCUCUCCCUACGGUAAAUTT against Oxsm | inactive: 0.457 |
| GGAAGAGUUGGAGAAAAUUTT against Tex46 | inactive: 2 |
| GGCGCAUAGCAUUUGACAUTT against Fbxl13 | inactive: -0.561 |
| GGAUAACAGAUGGUUAAUATT against Pramel48 | inactive: 0.202 |
| GGAGAUCCUGGGUACUGCATT against Rpl12 | inactive: 1.34 |
| CGGACCUAUGCAAGAAGAUTT against Psapl1 | inactive: 0.102 |
| GCCUGUGCAAAAGAGAUUUTT against Gata3 | inactive: 1.93 |
| GGAACAAUGGGUUCAUUUUTT against Ifi203 | inactive: 0.136 |
| GGAAAGUUGCACUAUUAUCTT against Ide | inactive: 1.44 |
| GGGUUUCAAUAUGAUCAAATT against Catsperb | inactive: 0.495 |
| GCAUCCUUAGUGAUUUCUATT against Slc48a1 | inactive: 0.601 |
| GGCUCUUACAUGAAAUGAUTT against Copb1 | inactive: -0.933 |
| GCAGAACCAACAUGGCCGUTT against Polr3b | inactive: 0.799 |
| GGCUGCUACCAAGAGUCAATT against Reep4 | inactive: -1.64 |
| GCUGUUCAUACCUAGUGGGTT against Sbno2 | inactive: -1.78 |
| GGUACUUACAAUUUCAUCATT against Rint1 | inactive: 0.253 |
| GUUAUCUGGAUAUCCUAUATT against Olfr1469 | inactive: -0.732 |
| CCUGAUUAGCAGAGACUUGTT against Col23a1 | inactive: -0.265 |
| GGGAGAACUUACAAAAAGATT against Wdcp | inactive: -1.1 |

| Sequence | z-score |
| --- | --- |
| GGCAAAAAGGACGUGAACCTT against Cblc | inactive: 0.749 |
| CGUGGUCAUCUGGUAUGAGTT against Zfp653 | active: 2.53 |
| CCUAAAGGAAGGUUUCCAUTT against Cacng4 | inactive: 1.45 |
| GCAAUGUGUAUGGUAUCUUTT against Tas2r121 | inactive: -1.73 |
| GCUCAUAGAGACAAUUGCATT against Olfr822 | inactive: -0.501 |
| GGAUUUGCUCACGGAACCATT against Olfr1230 | inactive: 0.472 |
| GGACAACAAACUUUUCCUGTT against Ctsa | inactive: 0.164 |
| GGCUCUCAAUGAUCAUCAUTT against Aldob | inactive: -0.423 |
| CGGUUGUGUGAGUAAAAUUTT against Pax6 | inactive: -0.169 |
| GGAAGUGCUGCACAUACUATT against Bnc2 | inactive: -0.525 |
| GCAUUAGUGGACAUGUAUCTT against Slc6a13 | inactive: 0.744 |
| GGAGCUGCUCAUGUAUUCCTT against Gnb2 | inactive: -1.91 |
| GGAUUACAAAUGGAGAAAGTT against Ano4 | inactive: -0.411 |
| CCGGAAAGUUCGACAUUCCTT against Tmbim1 | inactive: 1.07 |
| GGUGGUCUACUUAGGUUUATT against Sc5d | inactive: 0.63 |
| GGCUAAGUAGAACUUGUUATT against Pdcl2 | inactive: -0.644 |
| GGAAGUGUGAUGAAUGAUATT against Micu1 | inactive: 0.532 |
| GCUUAAGUGGCAACCUAGATT against Zfp93 | inactive: -0.487 |
| GGAGAAGAAGUGCUUCCCUTT against Gls2 | active: -2.81 |
| GGAAAUACCCACCUUAUACTT against Efhc2 | active: 2.51 |
| GCAUCGCAUUUAAAUAGAATT against 4833408A19Rik | inactive: 0.965 |
| GCUAGACUCAAUCAAGCAGTT against Papln | inactive: -0.539 |

Fetched one by one from the list above:

| Sequence | z-score |
| --- | --- |
| GGAGAAGAAGUGCUUCCCUTT against Gls2 | active: -2.81 |
| GGUGGUCUACUUAGGUUUATT against Sc5d | inactive: 0.63 |
| GGAAGUGUGAUGAAUGAUATT against Micu1 | inactive: 0.532 |

Further results:

| Sequence | z-score |
| --- | --- |
| GGAGAAUGAAAGUCAAGUUTT against Smn1 | inactive: -0.0605 |
| GACAGUAGCCUUCCUCAGGTT against Nr0b2 | inactive: 0.823 |
| GGAUACAAAGAGAGUUGUCTT against Eif3c | inactive: 1.23 |
| GGUGUUGGAGACCAUGGAUTT against Clcn6 | inactive: 0.829 |
| GGCAAAUUUCACUUUCAUUTT against Aph1c | inactive: -0.557 |
| CGGGAUCGUACUAAGCUGATT against Spdye4b | inactive: 0.38 |
| CGAGGGUCCUCGAAGACUATT against 3300002I08Rik | inactive: 1.19 |
| GCAGUGUAACUGGUAAAAUTT against Wdr92 | inactive: 0.476 |
| CCUACAUCCCUACCAUAGATT against Diras1 | inactive: -1.63 |
| GGAGACCUUCCAGAACACATT against Mesd | active: 2.38 |
| CGAGUUAUCCAAUAGCAUCTT against Rab12 | inactive: -0.402 |
| GGUUUGUUUACUCCUUUUGTT against Olfr876 | inactive: -0.192 |
| CCGAAAAUGGUUAGGACAUTT against Kynu | inactive: 1.44 |
| GGAAAUUGUAAGAAGCGUATT against Ska2 | inactive: -1.42 |
| GGCCAUCACUAUUAGCCUCTT against Vmn1r70 | inactive: -0.214 |
| GGAAGUCCACUUUUUUGUGTT against Cpb2 | inactive: 1.83 |
| GGCUCUGAUGAAUACAACATT against Slc7a6os | inactive: -1.3 |
| GGAUCAGGUGUGUGAGUCCTT against Gzmc | inactive: -1.37 |
| CCAGAAGACCUUUUACCUGTT against Il1rn | inactive: 0.678 |

Part of the list above, as comma-separated lines:
Sequence,z-score
GGAGAAUGAAAGUCAAGUUTT against Smn1,inactive: -0.0605
GGUUUGUUUACUCCUUUUGTT against Olfr876,inactive: -0.192
